Consider 17 targets from the supplement of paper PMC6411743.

By UniProt entry, the sequences of proteins in these tests, tags left out. Where a name states a change or a piece, a line headed by the entry shows the natural chain unless it says otherwise.
UniProt P30086: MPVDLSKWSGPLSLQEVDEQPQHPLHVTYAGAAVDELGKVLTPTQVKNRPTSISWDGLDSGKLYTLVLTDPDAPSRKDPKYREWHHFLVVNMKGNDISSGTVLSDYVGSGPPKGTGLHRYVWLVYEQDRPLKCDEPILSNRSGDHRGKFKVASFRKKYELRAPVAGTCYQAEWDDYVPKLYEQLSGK
UniProt P16989, whole entry: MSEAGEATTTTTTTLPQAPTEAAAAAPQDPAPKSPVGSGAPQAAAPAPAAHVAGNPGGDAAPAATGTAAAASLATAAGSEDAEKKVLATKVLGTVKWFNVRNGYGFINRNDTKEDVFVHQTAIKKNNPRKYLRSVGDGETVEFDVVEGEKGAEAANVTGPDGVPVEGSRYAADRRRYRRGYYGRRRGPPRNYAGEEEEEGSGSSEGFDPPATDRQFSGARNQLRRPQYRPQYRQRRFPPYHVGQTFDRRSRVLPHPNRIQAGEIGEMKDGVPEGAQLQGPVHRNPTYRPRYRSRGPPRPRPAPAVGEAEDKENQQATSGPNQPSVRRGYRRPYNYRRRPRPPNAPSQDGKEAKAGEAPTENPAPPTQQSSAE
UniProt P29084: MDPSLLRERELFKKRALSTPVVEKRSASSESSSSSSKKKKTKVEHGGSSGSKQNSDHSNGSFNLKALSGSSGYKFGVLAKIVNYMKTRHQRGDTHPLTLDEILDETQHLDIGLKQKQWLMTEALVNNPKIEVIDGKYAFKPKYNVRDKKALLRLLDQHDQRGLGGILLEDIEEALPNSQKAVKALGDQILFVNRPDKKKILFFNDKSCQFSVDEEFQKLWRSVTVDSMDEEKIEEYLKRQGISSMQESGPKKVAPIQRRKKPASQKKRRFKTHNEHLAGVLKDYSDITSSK
UniProt P30048: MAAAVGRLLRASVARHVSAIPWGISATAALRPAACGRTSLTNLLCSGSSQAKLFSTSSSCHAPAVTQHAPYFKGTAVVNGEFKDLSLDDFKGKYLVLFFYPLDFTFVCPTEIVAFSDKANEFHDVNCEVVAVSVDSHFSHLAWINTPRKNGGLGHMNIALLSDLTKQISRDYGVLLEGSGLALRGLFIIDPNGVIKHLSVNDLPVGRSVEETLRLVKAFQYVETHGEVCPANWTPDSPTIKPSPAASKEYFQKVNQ
UniProt P30281: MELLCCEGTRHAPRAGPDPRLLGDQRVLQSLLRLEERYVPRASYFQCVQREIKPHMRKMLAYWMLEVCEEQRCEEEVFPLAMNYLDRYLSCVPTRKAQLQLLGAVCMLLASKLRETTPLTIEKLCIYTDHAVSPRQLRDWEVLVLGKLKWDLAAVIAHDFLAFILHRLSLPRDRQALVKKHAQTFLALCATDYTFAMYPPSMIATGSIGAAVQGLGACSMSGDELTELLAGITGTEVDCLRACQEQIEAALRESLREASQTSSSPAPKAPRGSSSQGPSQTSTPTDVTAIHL
UniProt P29083: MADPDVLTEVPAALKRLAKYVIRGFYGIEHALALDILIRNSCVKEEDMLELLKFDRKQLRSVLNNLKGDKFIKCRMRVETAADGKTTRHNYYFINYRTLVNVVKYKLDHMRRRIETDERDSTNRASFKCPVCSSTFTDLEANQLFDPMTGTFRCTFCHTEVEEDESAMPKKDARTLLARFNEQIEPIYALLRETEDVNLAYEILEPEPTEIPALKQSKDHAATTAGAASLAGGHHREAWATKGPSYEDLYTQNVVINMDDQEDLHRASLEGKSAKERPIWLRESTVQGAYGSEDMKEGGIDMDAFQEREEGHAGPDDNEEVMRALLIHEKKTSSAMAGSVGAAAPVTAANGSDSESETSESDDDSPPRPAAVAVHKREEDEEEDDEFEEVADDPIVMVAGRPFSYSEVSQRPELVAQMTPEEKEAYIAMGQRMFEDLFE
UniProt P18754: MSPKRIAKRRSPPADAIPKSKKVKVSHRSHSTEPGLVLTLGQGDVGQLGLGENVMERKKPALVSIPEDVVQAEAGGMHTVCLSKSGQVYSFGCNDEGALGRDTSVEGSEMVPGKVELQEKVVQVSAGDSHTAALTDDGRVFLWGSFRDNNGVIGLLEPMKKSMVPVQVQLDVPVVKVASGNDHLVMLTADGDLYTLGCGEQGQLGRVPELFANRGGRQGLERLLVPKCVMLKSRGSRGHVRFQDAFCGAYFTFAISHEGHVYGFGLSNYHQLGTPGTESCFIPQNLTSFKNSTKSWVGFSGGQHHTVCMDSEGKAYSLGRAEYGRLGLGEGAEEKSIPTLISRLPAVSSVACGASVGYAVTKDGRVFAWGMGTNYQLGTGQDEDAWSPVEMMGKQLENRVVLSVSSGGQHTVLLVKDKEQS
UniProt P28799: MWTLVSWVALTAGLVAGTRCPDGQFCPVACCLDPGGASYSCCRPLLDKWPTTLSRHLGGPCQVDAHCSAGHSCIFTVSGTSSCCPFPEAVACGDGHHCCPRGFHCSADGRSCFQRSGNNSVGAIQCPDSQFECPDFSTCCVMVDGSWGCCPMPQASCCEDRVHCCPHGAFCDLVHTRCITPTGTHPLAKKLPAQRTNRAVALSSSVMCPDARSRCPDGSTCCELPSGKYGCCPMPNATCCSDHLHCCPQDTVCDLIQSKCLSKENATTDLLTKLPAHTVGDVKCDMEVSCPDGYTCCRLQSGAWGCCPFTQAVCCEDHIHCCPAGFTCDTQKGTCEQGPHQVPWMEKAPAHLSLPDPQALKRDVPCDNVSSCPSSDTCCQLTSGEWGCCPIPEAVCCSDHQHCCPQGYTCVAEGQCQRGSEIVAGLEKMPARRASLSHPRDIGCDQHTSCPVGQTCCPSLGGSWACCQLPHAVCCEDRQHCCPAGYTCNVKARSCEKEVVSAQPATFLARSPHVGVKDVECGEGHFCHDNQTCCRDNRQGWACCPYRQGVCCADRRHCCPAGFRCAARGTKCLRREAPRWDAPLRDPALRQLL
UniProt P27701: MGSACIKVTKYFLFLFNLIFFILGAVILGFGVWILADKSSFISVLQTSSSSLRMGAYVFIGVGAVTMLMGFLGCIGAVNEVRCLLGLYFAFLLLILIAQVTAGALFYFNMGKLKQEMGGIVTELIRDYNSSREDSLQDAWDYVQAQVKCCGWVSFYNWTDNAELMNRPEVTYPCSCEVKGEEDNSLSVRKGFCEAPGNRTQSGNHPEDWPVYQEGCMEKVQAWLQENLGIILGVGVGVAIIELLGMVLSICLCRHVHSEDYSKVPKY
UniProt P20339: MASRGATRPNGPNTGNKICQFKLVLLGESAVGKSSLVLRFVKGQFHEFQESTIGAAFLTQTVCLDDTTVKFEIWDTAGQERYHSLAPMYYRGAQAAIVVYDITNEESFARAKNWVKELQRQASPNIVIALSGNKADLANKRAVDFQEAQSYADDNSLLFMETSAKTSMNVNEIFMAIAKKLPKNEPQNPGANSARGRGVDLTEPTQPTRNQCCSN
UniProt P17050: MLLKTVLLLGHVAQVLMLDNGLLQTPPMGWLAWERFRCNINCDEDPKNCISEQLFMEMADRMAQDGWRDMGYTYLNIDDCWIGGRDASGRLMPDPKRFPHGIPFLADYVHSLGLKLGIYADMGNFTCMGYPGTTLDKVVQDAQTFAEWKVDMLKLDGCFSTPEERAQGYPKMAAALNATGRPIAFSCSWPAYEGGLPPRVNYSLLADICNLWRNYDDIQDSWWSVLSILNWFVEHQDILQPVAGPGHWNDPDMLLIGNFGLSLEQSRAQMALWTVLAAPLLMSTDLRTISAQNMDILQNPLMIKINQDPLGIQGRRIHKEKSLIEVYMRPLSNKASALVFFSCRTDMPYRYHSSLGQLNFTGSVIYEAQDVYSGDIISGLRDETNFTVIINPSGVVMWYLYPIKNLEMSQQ
UniProt P28065: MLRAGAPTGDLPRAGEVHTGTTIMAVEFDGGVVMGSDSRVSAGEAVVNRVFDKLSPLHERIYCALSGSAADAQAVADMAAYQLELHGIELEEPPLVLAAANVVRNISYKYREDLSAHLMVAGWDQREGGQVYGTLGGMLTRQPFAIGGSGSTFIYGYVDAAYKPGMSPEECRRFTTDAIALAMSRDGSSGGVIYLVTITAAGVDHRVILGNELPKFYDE
UniProt P28907, whole entry: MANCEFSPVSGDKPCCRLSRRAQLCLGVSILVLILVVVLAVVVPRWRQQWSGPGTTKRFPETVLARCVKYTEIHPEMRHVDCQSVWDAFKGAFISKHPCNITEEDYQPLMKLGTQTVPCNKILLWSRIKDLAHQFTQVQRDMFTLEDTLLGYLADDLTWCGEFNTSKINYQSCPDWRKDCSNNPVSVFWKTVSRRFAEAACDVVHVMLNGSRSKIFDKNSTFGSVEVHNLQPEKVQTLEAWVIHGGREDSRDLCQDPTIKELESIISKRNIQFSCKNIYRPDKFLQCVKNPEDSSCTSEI
UniProt P32189: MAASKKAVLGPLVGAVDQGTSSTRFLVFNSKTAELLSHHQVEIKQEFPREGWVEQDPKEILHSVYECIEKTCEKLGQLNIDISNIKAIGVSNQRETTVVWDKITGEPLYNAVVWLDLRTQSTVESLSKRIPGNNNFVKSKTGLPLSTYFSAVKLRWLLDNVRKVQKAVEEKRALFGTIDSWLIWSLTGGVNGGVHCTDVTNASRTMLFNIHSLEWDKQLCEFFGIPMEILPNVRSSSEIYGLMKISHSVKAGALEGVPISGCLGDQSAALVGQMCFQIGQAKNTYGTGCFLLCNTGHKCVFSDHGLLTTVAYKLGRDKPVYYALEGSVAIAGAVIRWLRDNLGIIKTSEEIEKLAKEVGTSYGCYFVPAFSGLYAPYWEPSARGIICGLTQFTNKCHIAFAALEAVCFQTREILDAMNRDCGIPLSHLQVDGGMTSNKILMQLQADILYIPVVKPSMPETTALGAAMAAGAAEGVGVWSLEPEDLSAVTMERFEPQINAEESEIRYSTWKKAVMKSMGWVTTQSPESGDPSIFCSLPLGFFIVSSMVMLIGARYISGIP
UniProt P18615, whole entry: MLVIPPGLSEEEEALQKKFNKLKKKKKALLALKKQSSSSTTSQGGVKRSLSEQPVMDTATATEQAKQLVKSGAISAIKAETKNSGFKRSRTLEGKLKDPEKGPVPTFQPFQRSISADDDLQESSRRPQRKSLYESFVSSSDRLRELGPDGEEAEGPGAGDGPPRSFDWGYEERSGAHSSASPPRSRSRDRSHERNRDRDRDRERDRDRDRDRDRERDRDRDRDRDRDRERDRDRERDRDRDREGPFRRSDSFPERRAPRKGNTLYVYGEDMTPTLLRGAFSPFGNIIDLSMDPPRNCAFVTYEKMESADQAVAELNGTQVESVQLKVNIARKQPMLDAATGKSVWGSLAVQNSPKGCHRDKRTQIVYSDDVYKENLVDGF
UniProt P18085: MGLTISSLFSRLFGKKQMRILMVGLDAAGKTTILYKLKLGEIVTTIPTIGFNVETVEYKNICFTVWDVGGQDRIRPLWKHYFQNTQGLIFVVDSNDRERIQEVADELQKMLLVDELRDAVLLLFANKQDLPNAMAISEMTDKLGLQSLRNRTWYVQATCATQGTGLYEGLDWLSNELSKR

± gives the standard deviation of the averaged measurements. The entries are a selection whose mix differs from that of the whole data set.

Compound in this test: Nc1ncnc2c1ncn2[C@@H]1O[C@H](COP(=O)(O)OP(=O)(O)OP(=O)(O)O)[C@@H](O)[C@H]1O [adenosine triphosphate]
Put plainly: NP40-soluble protein abundance relative to vehicle (solubility fold change) (ratio); higher = more soluble protein in presence of ATP. The method in brief: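 Across three independent experiments, values are fold changes against the detergent-processed vehicle for each replicate, based on vsn-normalised intensities. The samples were Jurkat crude lysate treated with eight concentrations (0.1 to 10 mM) for 10 min at room temperature and then 3 min at 37 °C. Lysate was solubilised with 0.8% NP40 and benzonase, ultracentrifuged, and the supernatant analysed by TMT-labelled LC-MS/MS.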

On to PEBP1 (UniProt P30086), for which the NP40-soluble protein abundance (concentration: 1mM) was 1.01 ± 0.09; the NP40-soluble protein abundance (concentration: 2mM) came to 0.97 ± 0.011; the NP40-soluble protein abundance (concentration: 4mM) amounted to 0.9448 ± 0.0061; the NP40-soluble protein abundance (concentration: 6mM) worked out at 0.979 ± 0.03; the NP40-soluble protein abundance (concentration: 8mM) is 0.95 ± 0.025; the NP40-soluble protein abundance (concentration: 10mM) was 0.924 ± 0.03.

On to UniProt P16989 and related entries, for which the NP40-soluble protein abundance by setting is: (concentration: 1mM) 0.932 ± 0.037; (concentration: 2mM) 0.944 ± 0.019; (concentration: 4mM) 0.908 ± 0.019; (concentration: 6mM) 0.955 ± 0.054; (concentration: 8mM) 0.878 ± 0.029; (concentration: 10mM) 0.854 ± 0.025.

GTF2E2 (UniProt P29084): the NP40-soluble protein abundance runs as follows: (concentration: 1mM) 0.965 ± 0.047; (concentration: 2mM) 0.96 ± 0.032; (concentration: 4mM) 0.928 ± 0.03; (concentration: 6mM) 0.976 ± 0.056; (concentration: 8mM) 0.896 ± 0.024; (concentration: 10mM) 0.9122 ± 0.007.

UniProt P30048 and related entries: the NP40-soluble protein abundance was 0.961 ± 0.056 (concentration: 1mM); 0.998 ± 0.029 (concentration: 2mM); 0.927 ± 0.018 (concentration: 4mM); 0.957 ± 0.034 (concentration: 6mM); 0.959 ± 0.053 (concentration: 8mM); 0.935 ± 0.03 (concentration: 10mM).

Turning to CCND3 (UniProt P30281), the NP40-soluble protein abundance (concentration: 1mM) was found to be 0.938 ± 0.09; the NP40-soluble protein abundance (concentration: 2mM) is 0.94 ± 0.06; the NP40-soluble protein abundance (concentration: 4mM) is 0.876 ± 0.03; the NP40-soluble protein abundance (concentration: 6mM) is 0.869 ± 0.037; the NP40-soluble protein abundance (concentration: 8mM) is 0.87 ± 0.014; the NP40-soluble protein abundance (concentration: 10mM) amounted to 0.939 ± 0.019.

In the case of GTF2E1 (UniProt P29083), the NP40-soluble protein abundance is, setting by setting: (concentration: 1mM) 0.9955 ± 0.0051; (concentration: 2mM) 1.025 ± 0.0042; (concentration: 4mM) 1.01 ± 0.015; (concentration: 6mM) 0.965 ± 0.061; (concentration: 8mM) 0.981 ± 0.03; (concentration: 10mM) 1.03 ± 0.011.

Regarding UniProt P18754 and related entries, the NP40-soluble protein abundance reads like this: (concentration: 1mM) 1.01 ± 0.045; (concentration: 2mM) 1.03 ± 0.022; (concentration: 4mM) 1.02 ± 0.022; (concentration: 6mM) 1.04 ± 0.024; (concentration: 8mM) 1.04 ± 0.041; (concentration: 10mM) 1.03 ± 0.03.

Regarding UniProt P28799 and related entries, the NP40-soluble protein abundance by setting is: (concentration: 1mM) 1 ± 0.087; (concentration: 2mM) 1.01 ± 0.08; (concentration: 4mM) 1.07 ± 0.038; (concentration: 6mM) 1.12 ± 0.072; (concentration: 8mM) 1.07 ± 0.022; (concentration: 10mM) 1.03 ± 0.091.

On to UniProt P22694-2|P22694-3|P22694, for which the NP40-soluble protein abundance is, setting by setting: (concentration: 1mM) 1.04 ± 0.02; (concentration: 2mM) 1.06 ± 0.028; (concentration: 4mM) 1.02 ± 0.028; (concentration: 6mM) 1.015 ± 0.0099; (concentration: 8mM) 1.02 ± 0.033; (concentration: 10mM) 1.02 ± 0.024.

Consider UniProt P27701 and related entries, for which the NP40-soluble protein abundance runs as follows: (concentration: 1mM) 0.874 ± 0.062; (concentration: 2mM) 0.896 ± 0.0062; (concentration: 4mM) 0.883 ± 0.039; (concentration: 6mM) 0.852 ± 0.024; (concentration: 8mM) 0.851 ± 0.036; (concentration: 10mM) 0.779 ± 0.072.

Turning to UniProt P20339 and related entries, the NP40-soluble protein abundance (concentration: 1mM) was 0.916 ± 0.079; the NP40-soluble protein abundance (concentration: 2mM) was found to be 0.977 ± 0.041; the NP40-soluble protein abundance (concentration: 4mM) came to 0.956 ± 0.037; the NP40-soluble protein abundance (concentration: 6mM) was 0.899 ± 0.11; the NP40-soluble protein abundance (concentration: 8mM) worked out at 0.949 ± 0.1; the NP40-soluble protein abundance (concentration: 10mM) was determined as 0.988 ± 0.033.

Regarding NAGA (UniProt P17050), the NP40-soluble protein abundance worked out at 0.986 ± 0.036 (concentration: 1mM); 1 ± 0.018 (concentration: 2mM); 0.996 ± 0.031 (concentration: 4mM); 0.974 ± 0.019 (concentration: 6mM); 0.955 ± 0.057 (concentration: 8mM); 0.95 ± 0.031 (concentration: 10mM).

As for PSMB9 (UniProt P28065), the NP40-soluble protein abundance came out at 0.963 ± 0.012 (concentration: 1mM); 0.98 ± 0.032 (concentration: 2mM); 0.956 ± 0.042 (concentration: 4mM); 0.912 ± 0.036 (concentration: 6mM); 0.92 ± 0.04 (concentration: 8mM); 0.958 ± 0.014 (concentration: 10mM).

Turning to UniProt P28907, the NP40-soluble protein abundance (concentration: 1mM) came out at 0.966 ± 0.087; the NP40-soluble protein abundance (concentration: 2mM) worked out at 0.955 ± 0.054; the NP40-soluble protein abundance (concentration: 4mM) is 0.943 ± 0.07; the NP40-soluble protein abundance (concentration: 6mM) was 0.966 ± 0.067; the NP40-soluble protein abundance (concentration: 8mM) came to 0.919 ± 0.028; the NP40-soluble protein abundance (concentration: 10mM) worked out at 0.864 ± 0.11.

As for UniProt P32189 and related entries, the NP40-soluble protein abundance by setting is: (concentration: 1mM) 1.06 ± 0.11; (concentration: 2mM) 1.04 ± 0.13; (concentration: 4mM) 1.03 ± 0.086; (concentration: 6mM) 0.988 ± 0.089; (concentration: 8mM) 1.01 ± 0.033; (concentration: 10mM) 1.06 ± 0.079.

Regarding UniProt P18615 and related entries, the NP40-soluble protein abundance reads like this: (concentration: 1mM) 0.951 ± 0.031; (concentration: 2mM) 0.95 ± 0.044; (concentration: 4mM) 0.938 ± 0.032; (concentration: 6mM) 0.983 ± 0.043; (concentration: 8mM) 0.914 ± 0.066; (concentration: 10mM) 0.916 ± 0.043.

On to ARF4 (UniProt P18085), for which the NP40-soluble protein abundance (concentration: 1mM) is 1.08 ± 0.29; the NP40-soluble protein abundance (concentration: 2mM) worked out at 1.04 ± 0.18; the NP40-soluble protein abundance (concentration: 4mM) was 0.964 ± 0.11; the NP40-soluble protein abundance (concentration: 6mM) stood at 0.889 ± 0.2; the NP40-soluble protein abundance (concentration: 8mM) stood at 1.02 ± 0.15; the NP40-soluble protein abundance (concentration: 10mM) came to 1.01 ± 0.063.
